## Primary screen of a compound library

Sequences of proteins named here, by UniProt entry; tags and fusion partners are left off. Residues count along the entry.
UniProt A4I591, 1-473: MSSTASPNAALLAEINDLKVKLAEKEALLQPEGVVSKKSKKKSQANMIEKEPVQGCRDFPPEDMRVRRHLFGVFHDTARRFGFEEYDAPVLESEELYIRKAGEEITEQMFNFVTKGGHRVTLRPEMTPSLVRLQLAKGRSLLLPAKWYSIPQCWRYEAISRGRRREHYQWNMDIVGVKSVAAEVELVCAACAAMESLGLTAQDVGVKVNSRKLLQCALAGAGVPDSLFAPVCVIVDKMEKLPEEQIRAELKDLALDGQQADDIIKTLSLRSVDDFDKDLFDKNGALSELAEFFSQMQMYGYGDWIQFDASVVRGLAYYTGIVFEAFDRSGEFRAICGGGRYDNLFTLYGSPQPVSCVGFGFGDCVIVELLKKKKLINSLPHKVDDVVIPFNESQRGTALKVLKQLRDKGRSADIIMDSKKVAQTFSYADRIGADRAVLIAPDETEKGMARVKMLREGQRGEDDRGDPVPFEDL
UniProt Q4DA54, 1-478: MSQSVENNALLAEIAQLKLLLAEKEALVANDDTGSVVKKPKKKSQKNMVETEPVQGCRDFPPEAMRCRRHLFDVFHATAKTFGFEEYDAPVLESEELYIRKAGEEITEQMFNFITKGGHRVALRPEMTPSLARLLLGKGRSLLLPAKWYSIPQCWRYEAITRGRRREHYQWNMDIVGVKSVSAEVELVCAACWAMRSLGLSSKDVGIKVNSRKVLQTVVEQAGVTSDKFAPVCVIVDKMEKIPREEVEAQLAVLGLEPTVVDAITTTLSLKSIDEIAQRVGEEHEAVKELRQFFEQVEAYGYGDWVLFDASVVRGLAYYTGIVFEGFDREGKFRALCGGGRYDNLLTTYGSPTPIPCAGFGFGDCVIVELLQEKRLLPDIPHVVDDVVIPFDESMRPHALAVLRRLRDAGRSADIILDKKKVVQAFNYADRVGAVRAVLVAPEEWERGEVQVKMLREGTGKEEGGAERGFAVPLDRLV
UniProt Q8IDJ8, 1-583: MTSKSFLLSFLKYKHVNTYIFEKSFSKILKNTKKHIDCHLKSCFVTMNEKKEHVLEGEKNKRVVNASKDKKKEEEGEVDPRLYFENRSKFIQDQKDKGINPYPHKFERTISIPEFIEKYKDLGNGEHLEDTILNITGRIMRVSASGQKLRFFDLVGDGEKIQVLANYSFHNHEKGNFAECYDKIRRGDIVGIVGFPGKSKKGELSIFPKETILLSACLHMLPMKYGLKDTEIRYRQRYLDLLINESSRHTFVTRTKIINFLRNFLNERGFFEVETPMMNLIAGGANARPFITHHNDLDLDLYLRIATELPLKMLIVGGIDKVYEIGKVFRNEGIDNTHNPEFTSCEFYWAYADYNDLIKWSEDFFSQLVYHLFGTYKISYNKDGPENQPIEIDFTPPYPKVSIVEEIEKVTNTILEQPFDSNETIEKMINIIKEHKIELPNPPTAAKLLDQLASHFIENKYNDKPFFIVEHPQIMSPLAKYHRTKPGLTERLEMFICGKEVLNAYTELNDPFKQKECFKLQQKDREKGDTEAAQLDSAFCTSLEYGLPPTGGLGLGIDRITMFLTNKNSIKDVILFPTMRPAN

Data taken from ChEMBL document CHEMBL3988442, “University of Dundee, Small-Polar-MMV Screening Library” (2021).

A: 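Histidine-tRNA ligase, Leishmania infantum (UniProt A4I591). Enzyme assay of histidyl-tRNA synthetase; the read-out is not stated. Concentration: 30 µM. Higher reads as stronger inhibition (inferred: compounds with an IC50 in retests scored well above the rest). The assay is labelled LdHisRS but filed under L. infantum. Of about 69,000 compounds tested this way, about 410 (0.6%) reached 50% or more in at least one test.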
B: 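Histidine-tRNA ligase, Trypanosoma cruzi CL Brener (UniProt Q4DA54). Enzyme assay of histidyl-tRNA synthetase; the read-out is not stated. Tested at 30 µM. The record gives no direction; compounds that gave an IC50 in retests scored well above the rest, so higher reads as stronger inhibition. Of about 69,000 compounds tested this way, about 31 (0.045%) reached 50% or more in at least one test.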
C: 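Enzyme assay of the cytosolic lysyl-tRNA synthetase in 384-well plates, read by luminescence. Target: Lysine-tRNA ligase, Plasmodium falciparum 3D7 (UniProt Q8IDJ8). Tested at 30 µM. Direction is inferred from only a few compounds that gave an IC50; most scored high, so higher reads as stronger inhibition. Of about 69,000 compounds tested this way, about 49 (0.071%) reached 50% or more in at least one test.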
D: 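Cell assay of Leishmania donovani living inside macrophages; the read-out is not stated. Concentration: 30 µM. Higher reads as stronger inhibition (inferred: compounds with an IC50 in retests scored well above the rest). Of about 69,000 compounds tested this way, about 1,000 (1.5%) reached 50% or more in at least one test.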

Results are given as percent effect.
How 0% and 100% were set is not recorded. Most values in the screen are low, and negative values occur.
The compounds are a random part of those screened.
Two or more numbers in one place are separate tests of the same structure; such repeats can differ widely.

* O=C(O)C(F)(F)F.c1cnc(N2CCOCC3(C2)CN(c2nccs2)CCO3)nc1 (stereo not shown) : D: 32.3%
* CCN1CCCC(O)(CN(C)Cc2ccc(C)o2)C1 (stereo not shown) : A: 14.94%; B: 6.186%; C: -0.09146%; D: 21.85%
* Cn1cc(NC(=O)Nc2cccc3cccnc23)ccc1=O : A: 114.5%; B: 18.29%; C: 12.72%; D: -49.54%
* Cc1ncsc1CNCC(C)c1nc2ccccc2o1 (stereo not shown) : A: 8.108%; B: 8.333%; C: 1.176%; D: 18.08%
* CN1[C@H](Cn2cccn2)C[C@@H]2CN(Cc3cccs3)CC[C@@H]21 : A: 2.74%; B: 0%; C: -1.786%
* c1cc(CN2CCO[C@@H]3CNC[C@@H]32)cs1 : A: 16.24%; B: 5.882%; C: -1.658%
* O=C(O)C(F)(F)F.[H][C@@]12COC[C@]1(C(=O)NCC1CC1)CN(Cc1scnc1C)C2 : D: -9.064%
* c1ccc(-c2ccc(CN3CCOC(Cn4cncn4)C3)cc2)cc1 (stereo not shown) : A: -1.695%; B: 4%; C: 0.02631%; D: 30.7%
* CCNC(=O)[C@@H]1C[C@@H](N)CN1C(=O)Cc1cc(C)ccc1C : A: 6.25%; B: 4.469%; C: 7.496%; D: 12.37%
* COCc1nn(C)c2c1CN(Cc1cnn(C)c1)CC2.O=C(O)C(F)(F)F : D: 10.53%
* Cc1cc(-c2cc(C3CCOC3)c(C#N)c(N)n2)ccc1Cl (stereo not shown) : A: 25%; B: 2.041%; C: 7.824%; D: -0.6889%
* COc1c(C)cc(S(=O)(=O)NCC2CNCCOC2)cc1C (stereo not shown) : A: 7.042%; B: 4.972%; C: -0.5548%; D: 5.887%
* COCCCN1CCN(C(=O)C(c2cccc(F)c2)N(C)C)CC1 (stereo not shown) : A: 6.202%; B: 5.952%; C: 1.505%; D: 40.78%
* Cc1nn(C)cc1S(=O)(=O)N[C@@H]1CCC[C@@H](n2ccnc2)[C@@H]1O : A: 20%; B: -0.3831%; C: -0.09111%; D: 9.351%
* COC(=O)c1cccc(C(=O)NCc2ccco2)n1 : A: 7.895%; B: 1.22%; C: 4.878%; D: 23.96% & -14.65%
* CCc1oc(C(=O)N(C)Cc2ccncc2)cc1CN(CC)CC : A: 12.09%; B: 3.96%; C: 1.853%; D: -3.235%
* Cc1ncc(CNCCO)c2cc(C(=O)c3ccc(Br)cc3)oc12 : A: 28.26%; B: 25%; C: 5.081%
* CC(C)c1nnsc1CN1CCc2[nH]nc(-c3ccc(F)c(F)c3)c2C1 : A: 2.632%; B: 10.61%; C: 3.625%; D: 8.664%
* CN(Cc1nc2ccsc2c(=O)[nH]1)CC1CCCCC1 : A: 22.86%; B: 9.278%; C: 6.548%; D: 6.643%
* Cc1ccnc(C(=O)N2C[C@@H]3CN(S(C)(=O)=O)CCO[C@@H]3C2)c1 : A: 8.772%; B: 5.376%; C: -0.9813%
* CN1CCN(Cc2cn3c(n2)CN(C2CCOCC2)CC3)CC1.O=C(O)C(F)(F)F.O=C(O)C(F)(F)F.O=C(O)C(F)(F)F : D: 17.41%
* CCn1cnnc1CNC(=O)N1CCN(CCc2ccccc2)CC1 : A: 15.04%; B: 2.624%; C: 1.788%; D: 22.03%
* O=C(c1cccc(Cl)c1)N1CCCC2(CCCNC2)C1 (stereo not shown) : A: 7.071%; B: 5.806%; C: -0.1341%
* O=C(O)C(F)(F)F.[H][C@]12C[C@H](C(=O)NC)N(C)[C@@]1([H])CN(S(=O)(=O)c1ccc(C)cc1)C2 : D: 7.67%
* Cc1cc(C)n(C2CN(CCc3ccccn3)C2)n1 : A: -29.27%; B: 8.173%; C: 0.5773%; D: -11.66%
* CCO[C@H]1CC[C@H]2[C@H]1OCCN2C(=O)c1nn(C)c2ccccc12 : A: 7.547%; B: 6.667%; C: 6.205%
* COc1ccc(CNC(C)c2cnn(C)c2)cc1OC1CCCC1 (stereo not shown) : A: -1.176%; B: 5.025%; C: 2.818%; D: 41.44%
* COc1ccccc1OC1CCN(Cc2ccc(N(C)C)nc2)CC1 : A: 20.78%; B: -3.636%; C: 3.243%; D: -67%
* CN(Cc1nc2c(cnn2C)c(=O)[nH]1)Cc1ccccc1Cl : A: 13.21%; B: 2.5%; C: 6.502%; D: 22%
* COc1ccc2c(c1)C1(CCN(Cc3ccncc3)CC1)N(C)CC2 : A: 18.45%; B: 1.087%; C: 5.088%; D: 29.29%
* O=C(c1ccco1)N1CCc2c(COCC3CC3)cncc2C1 : A: 11.76%; B: 0%; C: -0.7198%
* O=C(NCc1ccccc1OCC1CC1)C1CCOC1 (stereo not shown) : A: 8.065%; B: 5.747%; C: 2.817%; D: 3.021%
* Cc1cc2cccc(NC(=O)N3CCC(N4CCSCC4)CC3)c2o1 : A: 21.84%; B: 9.278%; C: 1.189%; D: 13.63%

The last 2 entries again:

* O=C(NCc1ccccc1OCC1CC1)C1CCOC1 (stereo not shown) : A: 8.065%; B: 5.747%; C: 2.817%; D: 3.021%
* Cc1cc2cccc(NC(=O)N3CCC(N4CCSCC4)CC3)c2o1 : A: 21.84%; B: 9.278%; C: 1.189%; D: 13.63%